Measured values taken from paper PMC12758326.
These are yes or no findings as the source states them, for the method shown. In cells and extracts the contact can be indirect. Some binding calls cover weakened binding; strength is not graded here.

Target: T1, PPARGC1A/PGC-1α (human (endogenous in HK2)) (UniProt Q9UBK2)
T1 sequence: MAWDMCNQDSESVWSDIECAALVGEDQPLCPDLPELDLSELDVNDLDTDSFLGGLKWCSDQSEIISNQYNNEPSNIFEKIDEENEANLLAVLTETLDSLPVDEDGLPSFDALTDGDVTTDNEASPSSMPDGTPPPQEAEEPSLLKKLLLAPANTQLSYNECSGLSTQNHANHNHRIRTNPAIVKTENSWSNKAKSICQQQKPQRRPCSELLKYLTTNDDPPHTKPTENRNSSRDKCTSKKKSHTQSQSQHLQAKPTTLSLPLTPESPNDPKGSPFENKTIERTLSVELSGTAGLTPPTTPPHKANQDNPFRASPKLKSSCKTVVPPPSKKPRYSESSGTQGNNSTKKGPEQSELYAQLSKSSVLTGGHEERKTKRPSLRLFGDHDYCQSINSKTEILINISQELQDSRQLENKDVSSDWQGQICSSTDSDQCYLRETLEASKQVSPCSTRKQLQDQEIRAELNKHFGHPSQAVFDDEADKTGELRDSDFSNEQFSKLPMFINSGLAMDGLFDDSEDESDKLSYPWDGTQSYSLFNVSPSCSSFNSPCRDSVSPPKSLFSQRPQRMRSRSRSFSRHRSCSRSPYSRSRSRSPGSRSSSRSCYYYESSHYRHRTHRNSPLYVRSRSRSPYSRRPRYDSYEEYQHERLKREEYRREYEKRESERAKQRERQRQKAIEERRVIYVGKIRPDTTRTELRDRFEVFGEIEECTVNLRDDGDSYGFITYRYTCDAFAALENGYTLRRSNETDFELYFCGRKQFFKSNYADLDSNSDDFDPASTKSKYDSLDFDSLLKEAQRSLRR
Assay: co-IP; proteins extracted from HK2 cells incubated with anti-PGC-1α at 4°C overnight, protein A/G beads 2 h, western blot; cells with circAASS knockdown, or H/R-treated with overexpression of circAASS or of its linearised variants (LcircAASS-JS, RLcircAASS, LcircAASS-JS mut, LcircAASS-JS 518-776)

binding: binds
B1: RNF34 (protein, UniProt Q969K3 1-372)
chain: MKAGATSMWASCCGLLNEVMGTGAVRGQQSAFAGATGPFRFTPNPEFSTYPPAATEGPNIVCKACGLSFSVFRKKHVCCDCKKDFCSVCSVLQENLRRCSTCHLLQETAFQRPQLMRLKVKDLRQYLILRNIPIDTCREKEDLVDLVLCHHGLGSEDDMDTSSLNSSRSQTSSFFTRSFFSNYTAPSATMSSFQGELMDGDQTSRSGVPAQVQSEITSANTEDDDDDDDEDDDDEEENAEDRNPGLSKERVRASLSDLSSLDDVEGMSVRQLKEILARNFVNYSGCCEKWELVEKVNRLYKENEENQKSYGERLQLQDEEDDSLCRICMDAVIDCVLLECGHMVTCTKCGKRMSECPICRQYVVRAVHVFKS
